PubChem BioAssay AID1224830 | NIAID – 2016
The whole screen tested about 18,000 reagents; below is a part drawn at random. About 2,900 of all reagents (16%) were called active. 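Calls are made per well; low scores hint the gene aids the LPS response, high scores that it dampens it.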 Unmarked entries are inactive. Repeated entries: four replicate wells of each siRNA pool.

Aim: 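Host factors that control LPS-induced TNF expression in human macrophages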 (primary screen)
Cell system: human THP-1 monocytic leukaemia cells, TNF dual-luciferase reporter clone, PMA-differentiated to macrophage-like cells
Reagent: siRNA pool against human genes, 50 nM
Duration: LPS for 4 h, given about 3 days after siRNA transfection
Treatment: bacterial LPS (TLR4 ligand), 10 ng/ml
Measurement: 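TNF firefly reporter luminescence divided by renilla, normalised to the plate median, then turned into a robust z-score for each replicate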
Scale: TNF reporter robust z-score: higher = stronger TNF reporter response to LPS
Call rule: 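Each well counts as active if its z-score is over 2.8 or under -1.5; controls are left without a call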

target gene | TNF reporter robust z-score
CYP11B1 (cytochrome P450 family 11 subfamily B member 1) | 0.7
CYP11B1 (cytochrome P450 family 11 subfamily B member 1) | 0.29
CYP11B1 (cytochrome P450 family 11 subfamily B member 1) | 1.4
CYP11B1 (cytochrome P450 family 11 subfamily B member 1) | 1.12
ANKRD26 (ankyrin repeat domain 26) | -0.01
ANKRD26 (ankyrin repeat domain 26) | 0.07
ANKRD26 (ankyrin repeat domain 26) | 0.25
ANKRD26 (ankyrin repeat domain 26) | 1.13
MRM1 (mitochondrial rRNA methyltransferase 1) | 2.27
MRM1 (mitochondrial rRNA methyltransferase 1) | 0.72
MRM1 (mitochondrial rRNA methyltransferase 1) | 1.38
MRM1 (mitochondrial rRNA methyltransferase 1) | 2.47
KASH5 (KASH domain containing 5) | -0.36
KASH5 (KASH domain containing 5) | -0.78
KASH5 (KASH domain containing 5) | -0.7
KASH5 (KASH domain containing 5) | -0.32
PTAFR (platelet activating factor receptor) | -0.31
PTAFR (platelet activating factor receptor) | -0.22
PTAFR (platelet activating factor receptor) | 1.45
PTAFR (platelet activating factor receptor) | -0.23
SFTPB (surfactant protein B) | 0.21
SFTPB (surfactant protein B) | -0.31
SFTPB (surfactant protein B) | 0.79
SFTPB (surfactant protein B) | 0.6
SLC4A2 | 0.04
SLC4A2 | 2.74
SLC4A2 | 0.56
SLC4A2 | 1.61
TRIM16L (tripartite motif containing 16 like (pseudogene)) | -0.14
TRIM16L (tripartite motif containing 16 like (pseudogene)) | -0.26
TRIM16L (tripartite motif containing 16 like (pseudogene)) | 1.11
TRIM16L (tripartite motif containing 16 like (pseudogene)) | 0.66
ANKRD23 (ankyrin repeat domain 23) | -0.66
ANKRD23 (ankyrin repeat domain 23) | -0.13
ANKRD23 (ankyrin repeat domain 23) | -0.4
ANKRD23 (ankyrin repeat domain 23) | -0.23
TAC3 (tachykinin precursor 3) | -1.13
TAC3 (tachykinin precursor 3) | -0.99
TAC3 (tachykinin precursor 3) | 1.32
TAC3 (tachykinin precursor 3) | -1.09
KIF18A (kinesin family member 18A) | -1.3
KIF18A (kinesin family member 18A) | -0.23
KIF18A (kinesin family member 18A) | -0.83
KIF18A (kinesin family member 18A) | -1.16
ZNF665 (zinc finger protein 665) | 1.2
ZNF665 (zinc finger protein 665) | 1.32
ZNF665 (zinc finger protein 665) | 0.88
ZNF665 (zinc finger protein 665) | 1.53
PCDHA9 (protocadherin alpha 9) | -0.28
PCDHA9 (protocadherin alpha 9) | 0.84
PCDHA9 (protocadherin alpha 9) | 0.39
PCDHA9 (protocadherin alpha 9) | -0.49
ADM (adrenomedullin) | 0.11
ADM (adrenomedullin) | 0.64
ADM (adrenomedullin) | 1.1
ADM (adrenomedullin) | 0.99
OR1D5 (olfactory receptor family 1 subfamily D member 5) | 0.61
OR1D5 (olfactory receptor family 1 subfamily D member 5) | -0.21
OR1D5 (olfactory receptor family 1 subfamily D member 5) | -0.01
OR1D5 (olfactory receptor family 1 subfamily D member 5) | -0.44
WDR25 (WD repeat domain 25) | -1.5
WDR25 (WD repeat domain 25) | -1.23
WDR25 (WD repeat domain 25) | -1.17
WDR25 (WD repeat domain 25) | -1.65 (active)
REPIN1 (replication initiator 1) | -1.28
REPIN1 (replication initiator 1) | -0.74
REPIN1 (replication initiator 1) | -1.16
REPIN1 (replication initiator 1) | -1.17

Continued:
target gene | TNF reporter robust z-score
CCM2L (CCM2 like scaffold protein) | -0.27
CCM2L (CCM2 like scaffold protein) | 3.91 (active)
CCM2L (CCM2 like scaffold protein) | 0.27
CCM2L (CCM2 like scaffold protein) | -0.28
GABRR2 (gamma-aminobutyric acid type A receptor subunit rho2) | 0.31
GABRR2 (gamma-aminobutyric acid type A receptor subunit rho2) | 0.8
GABRR2 (gamma-aminobutyric acid type A receptor subunit rho2) | -0.74
GABRR2 (gamma-aminobutyric acid type A receptor subunit rho2) | -0.32
COMMD1 (copper metabolism domain containing 1) | -0.37
COMMD1 (copper metabolism domain containing 1) | -0.05
COMMD1 (copper metabolism domain containing 1) | -0.77
COMMD1 (copper metabolism domain containing 1) | 0.61
SYT9 (synaptotagmin 9) | -0.21
SYT9 (synaptotagmin 9) | 0.05
SYT9 (synaptotagmin 9) | -1.33
SYT9 (synaptotagmin 9) | 0.09
CD36 (CD36 molecule (CD36 blood group)) | -0.54
CD36 (CD36 molecule (CD36 blood group)) | 0.08
CD36 (CD36 molecule (CD36 blood group)) | 0.05
CD36 (CD36 molecule (CD36 blood group)) | 0.14
IFI44L (interferon induced protein 44 like) | 0.97
IFI44L (interferon induced protein 44 like) | 0.2
IFI44L (interferon induced protein 44 like) | 1.37
IFI44L (interferon induced protein 44 like) | 0.39
EBP (EBP cholestenol delta-isomerase) | 0.33
EBP (EBP cholestenol delta-isomerase) | 0.32
EBP (EBP cholestenol delta-isomerase) | -1.14
EBP (EBP cholestenol delta-isomerase) | 0.24
SLC4A11 | 0.51
SLC4A11 | 1.5
SLC4A11 | 2.48
SLC4A11 | 2.9 (active)
KDELR1 (KDEL endoplasmic reticulum protein retention receptor 1) | -1.58 (active)
KDELR1 (KDEL endoplasmic reticulum protein retention receptor 1) | -0.85
KDELR1 (KDEL endoplasmic reticulum protein retention receptor 1) | -0.04
KDELR1 (KDEL endoplasmic reticulum protein retention receptor 1) | -0.16
RPL36 (ribosomal protein L36) | -0.15
RPL36 (ribosomal protein L36) | -0.37
RPL36 (ribosomal protein L36) | -1.21
RPL36 (ribosomal protein L36) | -0.43
PCGF5 (polycomb group ring finger 5) | -1
PCGF5 (polycomb group ring finger 5) | -0.46
PCGF5 (polycomb group ring finger 5) | -0.53
PCGF5 (polycomb group ring finger 5) | 0.32
CAMK2G (calcium/calmodulin dependent protein kinase II gamma) | 0.12
CAMK2G (calcium/calmodulin dependent protein kinase II gamma) | 1.62
CAMK2G (calcium/calmodulin dependent protein kinase II gamma) | 0.52
CAMK2G (calcium/calmodulin dependent protein kinase II gamma) | 1.75
GAK (cyclin G associated kinase) | -0.55
GAK (cyclin G associated kinase) | -0.06
GAK (cyclin G associated kinase) | 0.83
GAK (cyclin G associated kinase) | -0.56
COP1 (COP1 E3 ubiquitin ligase) | -2.08 (active)
COP1 (COP1 E3 ubiquitin ligase) | -0.37
COP1 (COP1 E3 ubiquitin ligase) | -0.66
COP1 (COP1 E3 ubiquitin ligase) | -0.36
USP44 (ubiquitin specific peptidase 44) | 0.23
USP44 (ubiquitin specific peptidase 44) | -0.41
USP44 (ubiquitin specific peptidase 44) | 0.32
USP44 (ubiquitin specific peptidase 44) | -0.12
GNB2 (G protein subunit beta 2) | 0.33
GNB2 (G protein subunit beta 2) | 0.14
GNB2 (G protein subunit beta 2) | 0.57
GNB2 (G protein subunit beta 2) | -0.88
ARMCX6 (armadillo repeat containing X-linked 6) | -0.37
ARMCX6 (armadillo repeat containing X-linked 6) | -0.24
ARMCX6 (armadillo repeat containing X-linked 6) | -0.62
ARMCX6 (armadillo repeat containing X-linked 6) | 1.24
WFIKKN2 | 2.97 (active)
WFIKKN2 | 0.25
WFIKKN2 | 1.11
WFIKKN2 | 0.31
